The results in this text go back to paper PMC7175094.

Amino acid sequences for entries named in this document (tags omitted). Residues count along the entry.
UniProt P02768, residues 25-609: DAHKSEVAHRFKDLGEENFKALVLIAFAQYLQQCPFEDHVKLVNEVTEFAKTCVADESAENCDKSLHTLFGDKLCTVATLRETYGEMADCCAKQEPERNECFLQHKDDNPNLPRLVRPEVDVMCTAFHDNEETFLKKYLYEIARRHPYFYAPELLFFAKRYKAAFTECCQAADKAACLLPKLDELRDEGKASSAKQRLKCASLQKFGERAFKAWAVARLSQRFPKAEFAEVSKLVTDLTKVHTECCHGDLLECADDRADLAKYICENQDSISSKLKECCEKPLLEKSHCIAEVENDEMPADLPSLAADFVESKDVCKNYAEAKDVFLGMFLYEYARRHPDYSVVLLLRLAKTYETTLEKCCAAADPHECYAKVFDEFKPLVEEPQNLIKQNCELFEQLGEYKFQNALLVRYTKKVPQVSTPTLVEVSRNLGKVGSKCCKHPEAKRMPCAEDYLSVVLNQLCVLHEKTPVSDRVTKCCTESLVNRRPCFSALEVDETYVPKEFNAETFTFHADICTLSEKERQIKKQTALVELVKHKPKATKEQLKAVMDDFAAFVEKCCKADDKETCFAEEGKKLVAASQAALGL

The target of the assay is Human serum albumin (human) (UniProt P02768). The experiment in a line: SEC; both purified.

Results are given in words; binding and its absence hold for the method and conditions named.

B1: Csa2 (protein, UniProt Q5A0X8 21-147)
chain: APAVTAAPAPAADNPYTIYPPVPKTASINGFADRIYDQIPKCAQECVKQSTSSTPCPYWDTGCLCVIPNFTGAVGNCVASKCRGADVTNFRKLAVGACAAAGVWDPYWIIPASVSSALDAAATATGN
Regarding B1, the binding result is recorded as “no binding”.
